# Data source: PubChem BioAssay AID686937 (Drosophila RNAi Screening Center, 2013)
# Purpose: 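Genes in the fly needed for secretion of protein constitutively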 (primary screen)
# System: Drosophila S2 cells expressing secreted horseradish peroxidase
# Reagent: long dsRNA against Drosophila genes
# Time to read-out: about 5.5 days (5 days dsRNA, then 12 h reporter induction)
# Treatment: reporter expression induced after 5 days of dsRNA, read 12 h later; inducer not stated
# Measured: 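Chemiluminescent measurement of peroxidase in the medium 12 h after reporter induction, following 5 days of dsRNA, given as a z-score per plate; higher means more secretion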
# Direction: z-score: higher = more reporter secreted into medium
# The screen tested about 23,000 reagents; below is a random part of those with a known target gene and a result. 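Reduced-secretion tags in replicate 1 do not always agree with the z-scores; no criterion for assigning the tags was given.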 Not all columns of the deposit are shown. No sequences are given here. The record does not give: the amount of reagent.
predicted target,amplicon,"z-score, replicate 1","z-score, replicate 2","z-score, replicate 3","z-score, replicate 4"
Ir94d (Ionotropic receptor 94d),DRSC21568,0.21,0.33,,
Cbp53E (Calbindin 53E),DRSC07356,0.39,0.38,,
chif (chiffon),DRSC03508,-0.97,-0.22,,
lectin-46Ca,DRSC06612,-0.09,0.28,0.3,-0.56
CG1172,DRSC12182,0.47,0.66,,
CG1172,DRSC21954,0.6,0.25,,
CG13807,DRSC08342,0.23,0.12,,
Nedd4,DRSC11234,0.27,0.26,,
Nedd4,DRSC21548,-0.38,-0.35,,
CG8813,DRSC00706,0.03,0.39,,
ckn (caskin),DRSC06149,0.19,0.32,,
rols (rolling pebbles),DRSC09873,-0.66,-0.55,,
rols (rolling pebbles),DRSC10254,0.27,0.11,,
rols (rolling pebbles),DRSC10536,0.32,0.38,,
CG11841,DRSC14399,0.32,0.43,,
mRpL44 (mitochondrial ribosomal protein L44),DRSC12306,-0.29,-0.66,,
hig (hikaru genki),DRSC07628,0.42,0.61,0.43,0.38
hig (hikaru genki),DRSC22827,-0.56,-0.53,,
hig (hikaru genki),DRSC22899,0.13,0.01,,
CG5235,DRSC10494,0.26,0.19,,
CG7044,DRSC16180,0.53,0.49,,
CG1983,DRSC15410,0.26,0.47,,
PIG-O (Phosphatidylinositol glycan anchor biosynthesis class O),DRSC06123,0.25,0.44,,
CG1946,DRSC06804,0.2,0.25,,
Irbp (Inverted repeat-binding protein),DRSC17007,0.22,0.63,,
Zip42C.2 (Zinc/iron regulated transporter-related protein 42C.2),DRSC05004,0,0.24,,
CG12341,DRSC06133,0.13,0.29,,
Nab2 (Nuclear polyadenosine RNA-binding 2),DRSC14158,0.32,0.34,,
CG32024,DRSC21883,0.39,0.26,,
mip120 (Myb-interacting protein 120),DRSC06960,-0.2,-0.07,,
CG7222,DRSC07019,0.13,0.3,,
Tom40 (Translocase of outer membrane 40),DRSC18796,-0.15,-1.37,,
CG17652,DRSC00511,0.23,0.28,,
mthl13 (methuselah-like 13),DRSC05238,0.76,0.21,,
Vlet (Valette),DRSC19845,-0.02,0.2,,
CG33253,DRSC19547,0.65,0.36,,
CG33253,DRSC20053,0.02,0.43,-0.42,0.4
CG1544,DRSC15036,0.12,-0.04,,
CG7840,DRSC03075,0.02,0.2,,
Der-1 (Derlin-1),DRSC00301,-0.07,0.17,,
be (ben),DRSC19607,0.15,0.5,,
be (ben),DRSC19944,0.04,0.37,,
be (ben),DRSC19945,0.21,0.4,,
CG15333,DRSC18016,0.37,0.56,,
CG15333,DRSC18153,0.19,0.56,,
BBS1 (Bardet-Biedl syndrome 1),DRSC10196,0.71,0.64,,
CG16964,DRSC02546,0.76,0.16,,
DCP2 (Decapping protein 2),DRSC09399,0.22,0.36,,
DCP2 (Decapping protein 2),DRSC10597,-0.15,-0.36,,
CG17598,DRSC20636,0.39,0.34,,
CG34310,DRSC00943,0.74,-0.03,,
Notum,DRSC09959,0.47,0.46,,
CheB38a (Chemosensory protein B 38a),DRSC03205,-1.05,0.19,-0.1,-0.38
Dus3 (Dihydrouridine synthase 3),DRSC02059,2,0.56,,
Prx4 (Peroxiredoxin 4),DRSC08668,-0.18,0.18,,
s-cup (stanley-cup),DRSC06277,0.44,0.44,,
s-cup (stanley-cup),DRSC06278,0.21,0.18,,
Flad2 (Flavin adenine dinucleotide synthetase 2),DRSC02531,0.12,0.15,,
CG12877,DRSC14565,0.23,0.41,,
Noc3 (Nucleolar complex protein 3),DRSC12535,0.03,-0.37,,
Ssk (Snakeskin),DRSC10756,0.2,0.12,,
CG10973,DRSC09813,0.43,0.3,,
nbs,DRSC11373,0.29,0.03,,
SelT (Selenoprotein T),DRSC02732,0.3,0.06,,
CG7448 (retired record),DRSC11828,0.15,0.26,,
CG7448 (retired record),DRSC22485,0.29,-0.05,,
CG15614,DRSC06567,0.35,0.14,,
CG10725,DRSC09788,0.39,0.2,,
CG31441,DRSC15723,0.49,0.25,,
Patj,DRSC08712,-6.03,-6.11,,
CG5937,DRSC18392,0.18,0.25,,
CG15605,DRSC06558,0.44,0.34,,
Tsf3 (Transferrin 3),DRSC06849,0.36,0.15,,
eve (even skipped),DRSC07614,0.6,0.42,,
Ypel (Yippee-like),DRSC17996,0.48,0.41,,
Cpr78Cb (Cuticular protein 78Cb),DRSC11847,0.17,0.43,,
CG6142,DRSC15976,0.52,0.43,,
CG4645,DRSC19907,0.47,0.16,,
CG4424,DRSC15576,0.17,0.36,,
CG17242,DRSC00493,0.28,0.35,,
CG3108,DRSC18280,0.24,0.09,,
CG34125,DRSC00850,-0.32,0.3,,

In a second layout: results already given
| predicted target | amplicon | z-score, replicate 1 | z-score, replicate 2 | z-score, replicate 3 | z-score, replicate 4 |
| --- | --- | --- | --- | --- | --- |
| CG15333 | DRSC18153 | 0.19 | 0.56 | – | – |
| BBS1 (Bardet-Biedl syndrome 1) | DRSC10196 | 0.71 | 0.64 | – | – |
| CG16964 | DRSC02546 | 0.76 | 0.16 | – | – |
| DCP2 (Decapping protein 2) | DRSC09399 | 0.22 | 0.36 | – | – |
| DCP2 (Decapping protein 2) | DRSC10597 | -0.15 | -0.36 | – | – |
| CG17598 | DRSC20636 | 0.39 | 0.34 | – | – |
| CG34310 | DRSC00943 | 0.74 | -0.03 | – | – |
| Notum | DRSC09959 | 0.47 | 0.46 | – | – |
| CheB38a (Chemosensory protein B 38a) | DRSC03205 | -1.05 | 0.19 | -0.1 | -0.38 |
| Dus3 (Dihydrouridine synthase 3) | DRSC02059 | 2 | 0.56 | – | – |
| Prx4 (Peroxiredoxin 4) | DRSC08668 | -0.18 | 0.18 | – | – |
| s-cup (stanley-cup) | DRSC06277 | 0.44 | 0.44 | – | – |
| s-cup (stanley-cup) | DRSC06278 | 0.21 | 0.18 | – | – |
| Flad2 (Flavin adenine dinucleotide synthetase 2) | DRSC02531 | 0.12 | 0.15 | – | – |
